The series relates to human CD38. Kind of series: Epitope mapping using PEPSCAN method. It is filed as binding.

B1: -024: human monoclonal IgG1 anti-CD38 antibody, VL region SEQ ID No:22 and VH region SEQ ID No:27 (antibody, listed as Homo sapiens, V domains shown)
VH: EVQLVQSGAEVKKPGESLKISCKGSGYSFSNYWIGWVRQMPGKGLEWMGIIYPHDSDARYSPSFQGQVTFSADKSISTAYLQWSSLKASDTAMYYCARHVGWGSRYWYFDLWGRGTLVTVSS
VL: EIVLTQSPATLSLSPGERATLSCRASQSVSSYLAWYQQKPGQAPGLLIYDASNRASGIPARFSGSGSGTDFTLTISSLEPEDFAVYYCQQRSNWPLTFGGGTKVEIK
As to B1, the “regions of human CD38 bound” value is “SKRNIQFSCKNIYR and EKVQTLEAWVIHGG”.

Values taken from patent publication US20240165226A1, “COMBINATION TREATMENT OF CD38-EXPRESSING TUMORS” (GENMAB A/S, priority 2006, published 2024).
